Measured values: PubChem BioAssay AID2417 (National Center for Advancing Translational Sciences (NCATS), 2010)
About 4,300 (3.1%) of roughly 140,000 compounds were called active. This list was built around the results that the source calls inconclusive (neither active nor inactive); the mix of calls is not that of the screen.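 The calls were made as follows: active = readout at or below -70, meaning at least 70% loss of cells showing the perinucleolar compartment, a nuclear body marking cancer cells; inconclusive = readout between -30 and a set limit; inactive = the rest.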

test: High Content Assay for Compounds that inhibit the Assembly of the Perinucleolar Compartment; conditions: PC3M PTB-GFP, PNC prevalence imaging, 16 h; at 10 µM; stronger effect = lower value;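 also: plate controls were DMSO wells for no effect and camptothecin positive control wells for full effect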
Outline: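 Read-out is percentage of cells bearing a perinucleolar compartment, from automated 20x imaging of fixed, Hoechst-stained PC3M PTB-GFP cells. Cells were seeded 4 h, then exposed 16 h to compound (23 nl of library stock) in duplicate plates.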

| SMILES | activity change (PNC), negative = inhibition |
| --- | --- |
| Cc1nc2ccccc2c(=O)n1-c1cccc(O)c1 | active: -107% |
| Cn1cccc1/C=C1\C(=O)NC(=O)N(CCC2=CCCCC2)C1=O | inconclusive: -64.6% |
| Cc1ccc(S(=O)(=O)N2CCCCC2)cc1NC(=O)CN1CC=C(c2ccccc2)CC1 | inconclusive: -50.6% |
| CCOC(=O)c1c(C)c(P(=S)(N2CCOCC2)N2CCOCC2)n(C)c1C | active: -121% |
| CC(=O)c1c(C)n(CCCOC(C)C)c2ccc(O)cc12 | inactive: 21.6% |
| CC(=NCc1ccco1)c1c(O)n(-c2ccccc2)c(=O)[nH]c1=O | inconclusive: -37% |
| CC(C)CCCn1c(O)c(/C=C2/C=CC=N2)c(=O)[nH]c1=O | inconclusive: -67.7% |
| CC(C)=CCC12CN3CCN(CC(C3)C1=O)C2 | active: -87.8% |
| Clc1ccc(C(c2ccccc2)c2ncc[nH]2)cc1 (stereo not drawn) | inconclusive: -32.5% |
| CCN(CC)c1ccc(/C=C2\C(=O)NC(=O)N(Cc3ccco3)C2=O)cc1 | inactive: -29.7% |
| CCC1CCCCN1CC(=O)c1ccc(OC(F)F)cc1 (stereo not drawn) | inconclusive: -31.1% |
| C=CCn1c(O)c(C(CC)=NCCc2ccccc2)c(=O)[nH]c1=O | inconclusive: -53.5% |
| Cc1cc(C)cc(N2C(=O)NC(=O)/C(=C\c3cccn3-c3ccccc3)C2=O)c1 | inconclusive: -54.1% |
| Cc1cc(C)cc(N2C(=O)NC(=O)/C(=C\c3cccn3-c3ccc(Cl)cc3)C2=O)c1 | inconclusive: -40.8% |
| Cc1ccc(N)c(C(=O)c2ccccc2)c1 | inactive: 10.2% |
| O=C1CC(=O)N(c2ccc(Cl)cc2Cl)C(=O)N1 | active: -127% |
| O=c1[nH]c(=S)n(C2CC2)c(O)c1/C=N/N1CCOCC1 | inconclusive: -38.4% |
| Cc1cnn(C2CCN(C)CC2)c1N | inconclusive: -57.5% |
| COc1ccc(Cn2c(N)c(C(=O)NCc3ccco3)c3nc4ccccc4nc32)cc1 | inactive: 32% |
| Cn1c(O)c(/C=N/c2ccccn2)c(=O)n(C)c1=O | inconclusive: -35.8% |
| COc1cc(N2CCOCC2)ccc1C=C1C(=O)NC(=O)NC1=O | inconclusive: -42.8% |
| Clc1ccc(C2N3CCCN23)c(Cl)c1 (stereo not drawn) | inconclusive: -38.3% |

| SMILES | activity change (PNC), negative = inhibition |
| --- | --- |
| CC(C(=O)N1CCC2(CC1)OCCO2)C1Sc2ccccc2NC1=O (stereo not drawn) | inconclusive: -39.2% |
| COc1cc(Cn2c(N)c(C(=O)NCc3ccco3)c3nc4ccccc4nc32)cc(OC)c1OC | inconclusive: -30.8% |
| Cn1c(O)c(C(=NCCN2CCCCC2)c2ccccc2Cl)c(=O)n(C)c1=O | inconclusive: -45.5% |
| CCC(C)n1c(O)c(C(c2ccccn2)c2c(O)n(C(C)CC)c(=S)[nH]c2=O)c(=O)[nH]c1=S (stereo not drawn) | inconclusive: -50.3% |
| Nc1cc(N2CCNCC2)c([N+](=O)[O-])cc1Cl | inconclusive: -48.7% |
| CCCCCCn1c(O)c(C=NCCN2CCOCC2)c(=O)[nH]c1=O | active: -114% |
| CCCCn1c(=O)c(C(=O)Nc2nc3ccccc3[nH]2)c(O)c2ccccc21 | inconclusive: -61.5% |
| O=P(OCC(F)(F)C(F)F)(N1CCCCC1)N1CCCCC1 | inconclusive: -48.5% |
| Cc1cc(/C=C2\C(=O)NC(=O)N(C)C2=O)c(C)n1-c1ccc2c(c1)OCO2 | inactive: -15% |
| CC(=O)OC(C)(C)/C=C/C(=O)[C@](C)(O)[C@H]1[C@H](O)C[C@@]2(C)[C@@H]3CC=C4[C@H](C[C@H](O)C(=O)C4(C)C)[C@]3(C)C(=O)C[C@]12C | active: -115% |
| COc1ccc(Cn2c(O)c(C=NCCN3CCOCC3)c(=O)[nH]c2=O)cc1 | inactive: 34% |
| CCC(=NCC1CCCO1)c1c(O)n(Cc2ccccc2)c(=O)[nH]c1=O (stereo not drawn) | inconclusive: -50.3% |
| CCC(CC)N1CCN(C(=O)Cc2ccccc2)CC1 | inconclusive: -39.1% |
| CCCCn1c(O)c(C(C)=NCCCn2ccnc2)c(=O)[nH]c1=O | inconclusive: -48.7% |
| CCOC(=O)c1cccc([P+](=O)O)c1 | inconclusive: -34.7% |
| C=CCn1c(O)c(C(C)=Nc2ccc(NC(C)=O)cc2)c(=O)[nH]c1=O | inconclusive: -56.5% |
| CCN(CC)CCOC(=O)c1ccc(N=Cc2c(O)[nH]c(=O)[nH]c2=O)cc1 | inactive: -11.1% |
| CCOc1ccc(/C=C2/C(=O)NC(=O)N(CCc3ccc(F)cc3)C2=O)cc1 | inconclusive: -32.2% |
| CCOc1ccc(-n2c(O)c(C=Nc3ccc(N4CCOCC4)cc3)c(=O)[nH]c2=O)cc1 | inconclusive: -31.5% |
| CCOC(=O)Cn1cc([N+](=O)[O-])nc1[N+](=O)[O-] | inconclusive: -33.3% |
| C=CCN1C(=O)NC(=O)/C(=C/c2cnc(SC)nc2)C1=O | inactive: -10.8% |

13 successive compounds out of the list so far, quoted:

| SMILES | activity change (PNC), negative = inhibition |
| --- | --- |
| CCC1CCCCN1CC(=O)c1ccc(OC(F)F)cc1 (stereo not drawn) | inconclusive: -31.1% |
| C=CCn1c(O)c(C(CC)=NCCc2ccccc2)c(=O)[nH]c1=O | inconclusive: -53.5% |
| Cc1cc(C)cc(N2C(=O)NC(=O)/C(=C\c3cccn3-c3ccccc3)C2=O)c1 | inconclusive: -54.1% |
| Cc1cc(C)cc(N2C(=O)NC(=O)/C(=C\c3cccn3-c3ccc(Cl)cc3)C2=O)c1 | inconclusive: -40.8% |
| Cc1ccc(N)c(C(=O)c2ccccc2)c1 | inactive: 10.2% |
| O=C1CC(=O)N(c2ccc(Cl)cc2Cl)C(=O)N1 | active: -127% |
| O=c1[nH]c(=S)n(C2CC2)c(O)c1/C=N/N1CCOCC1 | inconclusive: -38.4% |
| Cc1cnn(C2CCN(C)CC2)c1N | inconclusive: -57.5% |
| COc1ccc(Cn2c(N)c(C(=O)NCc3ccco3)c3nc4ccccc4nc32)cc1 | inactive: 32% |
| Cn1c(O)c(/C=N/c2ccccn2)c(=O)n(C)c1=O | inconclusive: -35.8% |
| COc1cc(N2CCOCC2)ccc1C=C1C(=O)NC(=O)NC1=O | inconclusive: -42.8% |
| Clc1ccc(C2N3CCCN23)c(Cl)c1 (stereo not drawn) | inconclusive: -38.3% |
| CC(C(=O)N1CCC2(CC1)OCCO2)C1Sc2ccccc2NC1=O (stereo not drawn) | inconclusive: -39.2% |
